# Assay results published in article PMC7819943, “Rice protein-binding microarrays: a tool to detect cis-acting elements near promoter regions in rice”.
# By UniProt entry, the sequences of proteins in these tests, tags left out.
# UniProt Q0JBA9, entry or part of it: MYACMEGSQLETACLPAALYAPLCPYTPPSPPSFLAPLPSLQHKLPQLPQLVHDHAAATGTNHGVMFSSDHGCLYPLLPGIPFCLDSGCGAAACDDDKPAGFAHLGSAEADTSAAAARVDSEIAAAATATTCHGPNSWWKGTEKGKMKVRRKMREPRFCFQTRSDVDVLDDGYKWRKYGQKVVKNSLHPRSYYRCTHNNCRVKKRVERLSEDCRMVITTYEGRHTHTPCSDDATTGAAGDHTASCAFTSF
# Some of the results follow.
# Target: OsWRKY34 (Oryza sativa, UniProt Q0JBA9 1-250)
# Assay: protein-binding microarray (RPBM); PBS, 2% BSA, 51.3 ng/ul salmon testes DNA, 50 uM zinc acetate, 200 nM TF, 25 C, 1 h; high values mean tight binding
# Details: protein: recombinant; tags: N-terminal polyhistidine and DsRed monomer fusion (pET32a); label: CyDye5-dUTP incorporated in the synthesized complementary strand; 3' TTTTT single-stranded linker to array surface; dsDNA, one strand shown
# In short: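 The binding signal for each feature is its fluorescence intensity in arbitrary units. An Axon 4000B scanner was used to read a custom Agilent array that had been made double-stranded with Cy5-dUTP primer extension, blocked with 2% BSA, incubated at 25 °C for 1 h with 200 nM protein in PBS, 2% BSA, salmon testes DNA and 50 µM zinc acetate, and washed. The protein was an N-terminal polyhistidine–DsRed transcription factor fusion from E. coli BL21-CodonPlus, purified on Ni–NTA.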
row,Sequence,binding signal
1,TGCTGCATGCTGTTGTCTTAAGTTATTTGGAGCATTCTTCCGGAGTCACCTAGTGCAG,8400 fluorescence intensity (a.u.)
2,CCGCCGCCCATCAACTCCGATCCTCTCCTCACCTGGATATCGGAGTCACCTAGTGCAG,10100 fluorescence intensity (a.u.)
3,TTGGATTAGGGTGTTTGTCAATGGCATTTCATGGATTTTCCGGAGTCACCTAGTGCAG,10300 fluorescence intensity (a.u.)
4,TACTCTCCGGCGGTACCATCTGCTTCCGTTTGTTGATCGACGGAGTCACCTAGTGCAG,10400 fluorescence intensity (a.u.)
5,CGATGTGTTCCGTGGGAACCGAGAGGGAGGGAGGGGATAACGGAGTCACCTAGTGCAG,10500 fluorescence intensity (a.u.)
6,ACCTATGCATCTTTCGAAAGATTTTTATGATCATATCACACGGAGTCACCTAGTGCAG,8100 fluorescence intensity (a.u.)
7,TGCTATAAATGTTCTGCTTCTTTTTTAGTTGGAACCATTTCGGAGTCACCTAGTGCAG,8690 fluorescence intensity (a.u.)
8,AGCGGTTGTCGTGTGTGTTGGCGGCGTGGGCGGGACGAAGCGGAGTCACCTAGTGCAG,12100 fluorescence intensity (a.u.)
9,CACGGTGCGGGGTTTGCAGCCGGTCTGCACAGAATTTTTTCGGAGTCACCTAGTGCAG,8160 fluorescence intensity (a.u.)
10,GTACACTCACACCGTTGCCTCCTCATTTTATAAATATATACGGAGTCACCTAGTGCAG,9200 fluorescence intensity (a.u.)
11,AGTACTACTACACTACGTCCTTGTCTTCAATTCAGCGCCCCGGAGTCACCTAGTGCAG,8100 fluorescence intensity (a.u.)
12,CGAAGCGGGAGTCGAGCAGGGTGGGGATGGAGGCGTCGTCCGGAGTCACCTAGTGCAG,12100 fluorescence intensity (a.u.)
13,CCCAACGCGACTCACCATAAATTCCAGTAAGTCTCCATTCCGGAGTCACCTAGTGCAG,8120 fluorescence intensity (a.u.)
14,CGACGGAAGCGGGGTCGGGGAGGTTGAAGAGGAGATAGGGCGGAGTCACCTAGTGCAG,8290 fluorescence intensity (a.u.)
15,CATGTCTGAATCAGAGCACCTTATCTTTCGTCATTTTCTGCGGAGTCACCTAGTGCAG,8130 fluorescence intensity (a.u.)
16,TTATTTACAAACGAGTTCCATTTTTTTCTACGGTGATCGGCGGAGTCACCTAGTGCAG,8120 fluorescence intensity (a.u.)
17,TCACACACACCAAGCCACACCAGCAACAGCAGCAAGCAACCGGAGTCACCTAGTGCAG,10500 fluorescence intensity (a.u.)
18,GTAGGTTGATTTTATGATTTGCGTTACATACATCCTTATTCGGAGTCACCTAGTGCAG,8270 fluorescence intensity (a.u.)
19,GGTGTGGTGGTGGTGGGGATGAGGAGCGCGATTGGGAGAGCGGAGTCACCTAGTGCAG,12800 fluorescence intensity (a.u.)
20,TGCGACCTCACCGTCATGGACGAACACCTGCTCACCGTCGCGGAGTCACCTAGTGCAG,8740 fluorescence intensity (a.u.)
21,ACCACGTCCCTTTCCATTTTCCCTTGTTTTTTTTCCTCCTCGGAGTCACCTAGTGCAG,11200 fluorescence intensity (a.u.)

# 2 entries from above, bar-delimited.
row | Sequence | binding signal
15 | CATGTCTGAATCAGAGCACCTTATCTTTCGTCATTTTCTGCGGAGTCACCTAGTGCAG | 8130 fluorescence intensity (a.u.)
16 | TTATTTACAAACGAGTTCCATTTTTTTCTACGGTGATCGGCGGAGTCACCTAGTGCAG | 8120 fluorescence intensity (a.u.)

# The results go on:

row,Sequence,binding signal
1,TCGCCGTTTCGCCGCTGGCCGCCGCCACCATCTCGCACCTCGGAGTCACCTAGTGCAG,8140 fluorescence intensity (a.u.)
2,TATTTATTTATTTTTGACTTACTTTATTATCTAAAGTACTCGGAGTCACCTAGTGCAG,8080 fluorescence intensity (a.u.)
3,GTTTCCTGACGTTTGATTTGCTTTGTATTGCAGGCTGTGACGGAGTCACCTAGTGCAG,12400 fluorescence intensity (a.u.)
4,GGCTGGGATTGGCTTCGAACTCTTTCTTTCCAGCCACGACCGGAGTCACCTAGTGCAG,8480 fluorescence intensity (a.u.)
5,TGTGATAATACCTGTACTCTCTTCTTGACCAGTCTTCATTCGGAGTCACCTAGTGCAG,9010 fluorescence intensity (a.u.)
6,ATGCGTTTCTGTTTCTCGGCCAATGCTGATCCGACAACGTCGGAGTCACCTAGTGCAG,8800 fluorescence intensity (a.u.)
7,GGCATTGTGGTCCTCACGGTCTCACTTGACCGTGAACAGCCGGAGTCACCTAGTGCAG,8640 fluorescence intensity (a.u.)
8,GGGTATCTGTCGCTTTGCTTCGCCCGCCTGCGCGTCATCACGGAGTCACCTAGTGCAG,10400 fluorescence intensity (a.u.)
9,CGCACTCACACATCCTCGAATACGCGTCTAACACATACTCCGGAGTCACCTAGTGCAG,9440 fluorescence intensity (a.u.)
10,AGTACTCCCAAGCAACGTTGACTTGACTTCCCAACTCCCACGGAGTCACCTAGTGCAG,11100 fluorescence intensity (a.u.)
11,GTCACGGCGCCTATTAGGCCTCCTTTTAAACCACCGAAAACGGAGTCACCTAGTGCAG,10300 fluorescence intensity (a.u.)
12,GCACTCCACGCCCTCATCCCATCGACCCACCCATCTCTCCCGGAGTCACCTAGTGCAG,9840 fluorescence intensity (a.u.)
13,CTGGCGAGCAGAGCAGGGGAGGGGAGGGGAGGGGATCGGGCGGAGTCACCTAGTGCAG,14200 fluorescence intensity (a.u.)
14,CGTTGACTTTTTTAAATATGTTTGACCGTTTATGTTATTTCGGAGTCACCTAGTGCAG,44100 fluorescence intensity (a.u.)
15,GCGTAACTTTCTCATACGGACTCGGAATCAGGCAAATAATCGGAGTCACCTAGTGCAG,8550 fluorescence intensity (a.u.)
16,CGCTGATTCGCTAAATGTGTTTCTTATACGGATATGTATTCGGAGTCACCTAGTGCAG,9520 fluorescence intensity (a.u.)
17,GAATTTATTTATTTTCAGCTGCTGTTTATTTATATTTATTCGGAGTCACCTAGTGCAG,8220 fluorescence intensity (a.u.)
18,GAGCTATTATTGATTGTTTTTCGTGAACGTCATTGTATTACGGAGTCACCTAGTGCAG,11000 fluorescence intensity (a.u.)
19,AGTCATTTTCCCTGTTTGCAATGTTTACAAGATTTAGATACGGAGTCACCTAGTGCAG,9870 fluorescence intensity (a.u.)
20,TAATCCTCTGTTTTACACGTGTATTTCTATCACATTCCTACGGAGTCACCTAGTGCAG,8040 fluorescence intensity (a.u.)
21,TTATCAGTTTAAGTCTTTGAAGGTTATGGTATTTTGAACACGGAGTCACCTAGTGCAG,8480 fluorescence intensity (a.u.)
